## Library screen at single concentrations

By UniProt entry, the sequences of proteins in these tests, tags left out. Residues count along the entry.
UniProt Q8IDJ8, 1-583: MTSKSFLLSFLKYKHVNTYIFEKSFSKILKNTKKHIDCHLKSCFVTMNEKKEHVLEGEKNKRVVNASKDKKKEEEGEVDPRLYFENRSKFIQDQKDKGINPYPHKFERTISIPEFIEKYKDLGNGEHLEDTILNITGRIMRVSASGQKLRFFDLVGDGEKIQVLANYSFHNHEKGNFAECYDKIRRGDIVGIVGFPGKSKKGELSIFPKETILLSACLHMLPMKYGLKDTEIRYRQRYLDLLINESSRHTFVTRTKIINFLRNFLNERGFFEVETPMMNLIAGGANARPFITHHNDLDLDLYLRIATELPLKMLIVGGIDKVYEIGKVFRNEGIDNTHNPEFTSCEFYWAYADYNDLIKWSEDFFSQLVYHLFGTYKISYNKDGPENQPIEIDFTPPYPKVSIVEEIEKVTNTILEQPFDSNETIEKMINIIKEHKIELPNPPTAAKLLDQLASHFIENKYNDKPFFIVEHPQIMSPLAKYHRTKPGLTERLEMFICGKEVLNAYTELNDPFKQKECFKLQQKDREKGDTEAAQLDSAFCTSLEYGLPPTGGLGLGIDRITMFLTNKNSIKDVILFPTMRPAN
UniProt P9WFT3, whole entry: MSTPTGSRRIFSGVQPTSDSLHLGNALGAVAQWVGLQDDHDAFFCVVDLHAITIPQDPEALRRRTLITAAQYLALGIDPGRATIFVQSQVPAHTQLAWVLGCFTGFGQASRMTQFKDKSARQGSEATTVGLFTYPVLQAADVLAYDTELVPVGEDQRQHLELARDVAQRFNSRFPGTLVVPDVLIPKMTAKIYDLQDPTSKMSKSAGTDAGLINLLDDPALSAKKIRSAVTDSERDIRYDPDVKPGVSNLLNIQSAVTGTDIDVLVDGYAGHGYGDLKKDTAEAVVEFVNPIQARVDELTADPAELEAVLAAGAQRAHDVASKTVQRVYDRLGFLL
UniProt P9WPC5, whole entry: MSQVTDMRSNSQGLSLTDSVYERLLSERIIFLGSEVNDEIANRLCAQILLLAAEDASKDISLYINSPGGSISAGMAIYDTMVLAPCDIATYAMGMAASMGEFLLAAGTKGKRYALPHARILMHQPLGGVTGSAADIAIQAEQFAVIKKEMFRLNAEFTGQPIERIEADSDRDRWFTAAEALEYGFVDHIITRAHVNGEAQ
UniProt P9WPC3, whole entry partner: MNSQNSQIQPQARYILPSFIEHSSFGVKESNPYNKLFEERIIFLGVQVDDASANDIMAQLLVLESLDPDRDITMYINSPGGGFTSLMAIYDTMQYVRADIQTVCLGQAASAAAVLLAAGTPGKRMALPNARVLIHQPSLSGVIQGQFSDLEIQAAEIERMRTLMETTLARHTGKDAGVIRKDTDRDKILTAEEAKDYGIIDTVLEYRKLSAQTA

PfKRS1: 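Enzyme assay of the cytosolic lysyl-tRNA synthetase in 384-well plates, read by luminescence. Target: Lysine-tRNA ligase, Plasmodium falciparum 3D7 (UniProt Q8IDJ8). Concentration: 30 µM. Direction is inferred from only a few compounds that gave an IC50; most scored high, so higher reads as stronger inhibition. About 69,000 compounds were tested under these conditions; 0.071% (about 49) showed 50% or more at least once.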
MtTrpRS: 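Tryptophan-tRNA ligase, Mycobacterium tuberculosis (UniProt P9WFT3). Enzyme assay of tryptophanyl-tRNA synthetase; the read-out is not stated. Tested at 10 µM. Higher most likely means stronger inhibition; the record gives no direction and few retests gave an IC50. Size under these conditions: about 65,000 compounds, about 64 of them at 50% or above in at least one test.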
ClpP1P2: 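ClpP1P2, Mycobacterium tuberculosis (UniProt P9WPC5 and UniProt P9WPC3). Protease assay of ClpP1P2, read by the AMC dye that it sets free. Concentration: 50 µM. Direction is inferred from only a few compounds that gave an IC50; most scored high, so higher reads as stronger inhibition. Most other retested compounds had strongly negative values. About 69,000 compounds were tested under these conditions; 0.015% (about 10) showed 50% or more at least once.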

Each number is a percent effect as filed. The record does not define 0% and 100%; most values in the screen are far below 50% and negative numbers occur (in some assays of this library far below -100). This is an unselected part of the compounds tested.

SMILES: CN(CCC(F)(F)F)C(=O)[C@H]1CSCN1C(=O)OC(C)(C)C
PfKRS1: -3.28%
MtTrpRS: -0.2138%
ClpP1P2: -5.38%

SMILES: CCc1noc(C(C)N2CCC(NS(=O)(=O)c3cccs3)CC2)n1 (configuration not stated)
PfKRS1: -3.046%
MtTrpRS: -3.786%
ClpP1P2: 7.437%

SMILES: CC(C)OCCC(=O)NCC(O)c1c(Cl)cccc1Cl (configuration not stated)
PfKRS1: 4.902%
MtTrpRS: -1.938%
ClpP1P2: -9.067%

SMILES: CCS(=O)(=O)CC(=O)NC1CCc2nccn2C1 (configuration not stated)
PfKRS1: 2.15%
MtTrpRS: 4.272%
ClpP1P2: -1.035%

SMILES: CC(=O)N(C)Cc1cccc(NC(=O)N(C)CCc2cccs2)c1
PfKRS1: -1.617%
MtTrpRS: -1.412%
ClpP1P2: -15.15%

SMILES: CNC(=O)Cc1noc(-c2cc3c(s2)CCCCCC3)n1
PfKRS1: 1.706%
MtTrpRS: -4.175%
ClpP1P2: -0.6906%

SMILES: CCN1CCN(Cc2coc(-c3cccc(F)c3)n2)CC1
PfKRS1: -6.805%
MtTrpRS: -3.118%
ClpP1P2: 18.3%

SMILES: COc1cc(CNc2ccc(Cl)cc2)ccc1OCC(=O)O
PfKRS1: 0.4706%
MtTrpRS: 4.32%
ClpP1P2: -5.219%

SMILES: O=C(NCCn1ccc(-c2ccncc2)n1)c1ccncc1
PfKRS1: 2.307%
MtTrpRS: 0.2138%
ClpP1P2: -7.267%

SMILES: CSCCc1ccc(NC(=O)NC(C)Cn2cncn2)cc1 (configuration not stated)
PfKRS1: 3.033%
MtTrpRS: -6.642%
ClpP1P2: 2.54%

SMILES: CCC1C(=O)NCCN1c1nccc(C)n1 (configuration not stated)
PfKRS1: 6.249%
MtTrpRS: 2.855%
ClpP1P2: -4.391%

SMILES: O=S1(=O)c2ccccc2OCC2(CCN(CCO)CC2)CN1CC1CC1
PfKRS1: 1.877%
MtTrpRS: 1.936%
ClpP1P2: -4.75%

SMILES: CCc1noc(C2CCCCN2C(=O)c2ccoc2C)n1 (configuration not stated)
PfKRS1: -1.854%
MtTrpRS: -0.804%
ClpP1P2: 3.655%

SMILES: CCOc1cc([C@@H]2N[C@H](c3nccs3)Cc3ccsc32)ccc1OC
PfKRS1: -0.8915%
MtTrpRS: 1.187%
ClpP1P2: -3.726%

SMILES: O=C(c1ccsc1)N1CCc2onc(CN3CCOCC3)c2C1
PfKRS1: 0.3314%
MtTrpRS: -9.515%
ClpP1P2: 4.89%

SMILES: O=C(NCCN1CCCC(CO)C1)c1ccc2sccc2c1 (configuration not stated)
PfKRS1: 3.596%
MtTrpRS: -2.727%
ClpP1P2: 2.316%

SMILES: Cc1nc(C(C)(C)C)sc1C(=O)NCCn1ccnc1
PfKRS1: 6.901%
MtTrpRS: 6.79%
ClpP1P2: 7.018%

SMILES: COc1cccc(CCC(=O)N2CCN(CC(C)(C)O)CC2)c1
PfKRS1: -2.166%
MtTrpRS: 13.75%
ClpP1P2: -12.25%

SMILES: CC(C)c1noc(C(C)N2CCC(c3nc4ccccc4o3)CC2)n1 (configuration not stated)
PfKRS1: 0.6212%
MtTrpRS: 2.381%
ClpP1P2: -8.208%

SMILES: COc1cc(CCC(=O)NC2CC2)ccc1OCC(F)(F)F
PfKRS1: 5.793%
MtTrpRS: -0.09747%
ClpP1P2: -6.074%

SMILES: O=C(c1cc(CC2(NCc3ccccc3)COC2)no1)N1CCCCC1
PfKRS1: 7.595%
MtTrpRS: 2.485%
ClpP1P2: 5.35%

SMILES: CC[C@@]1(O)CCN(C(=O)c2ccc(CN3CCCCCC3)cc2)C[C@H]1O
PfKRS1: 4.155%
MtTrpRS: -2.559%
ClpP1P2: -14.27%

Measurements from “University of Dundee, Small-Polar-MMV Screening Library” (2021), ChEMBL document CHEMBL3988442.